PubChem BioAssay AID493246 – Drosophila RNAi Screening Center | 2011
Aim: 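Genome-wide search for dsRNAs that reduce cell number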 (primary screen). System: Drosophila Kc and S2R+ cells. Reagent: long dsRNA against Drosophila genes. Detection: 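Cell number per well after knock-down, printed as raw plate values; calls were based on per-plate z-scores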. Direction: Kc cell number and S2R+ cell number: higher = more cells remaining. Active means: 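Counted as a hit if cell number falls by a z-score of at least 3 within its plate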.
In all, the deposit lists about 21,000 reagents; shown is an unselected part of those with a known target gene and a result. Of all reagents, 429 (2%) were called active. 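Values are raw and not normalised between plates; calls rest on per-plate z-scores that were not deposited.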 Not stated in the record: the amount of reagent, the time to read-out.

gene	amplicon	Kc cell number, rep 1	Kc cell number, rep 2	S2R+ cell number, rep 1	S2R+ cell number, rep 2	outcome
Pa1	DRSC19422	1.49e6	1.46e6	9.40e5	1.06e6	inactive
CG14691	DRSC14914	1.70e6	1.91e6	1.41e6	1.53e6	inactive
CG16711	DRSC10220	1.25e6	1.30e6	1.22e6	1.32e6	inactive
gcm	DRSC03536	1.62e6	1.66e6	1.16e6	1.34e6	inactive
CG7166	DRSC11809	1.34e6	1.44e6	1.19e6	1.30e6	inactive
CG33012	DRSC06287	1.63e6	1.66e6	1.38e6	1.46e6	inactive
CG33012	DRSC06288	1.67e6	1.72e6	1.44e6	1.50e6	inactive
Prx3	DRSC15883	1.57e6	1.60e6	1.20e6	1.25e6	inactive
Stt3B	DRSC16781	1.68e6	1.52e6	9.83e5	1.16e6	inactive
CG13436	DRSC06396	1.60e6	1.39e6	1.02e6	1.38e6	inactive
CG6321	DRSC10623	1.47e6	1.51e6	1.24e6	1.17e6	inactive
ppk27	DRSC08168	1.39e6	1.27e6	1.06e6	1.34e6	inactive
nullo	DRSC18807	1.60e6	1.65e6	1.12e6	1.25e6	inactive
CG8031	DRSC16364	1.65e6	1.71e6	1.28e6	1.35e6	inactive
CG12708	DRSC19490	1.50e6	1.50e6	1.09e6	1.16e6	inactive
Hpd	DRSC11670	1.59e6	1.64e6	1.51e6	1.48e6	inactive
uncNacbeta	DRSC00326	1.49e6	1.55e6	1.10e6	1.27e6	inactive
uno	DRSC07244	1.58e6	1.72e6	1.37e6	1.52e6	inactive
BoYb	DRSC11637	1.53e6	1.56e6	1.27e6	1.34e6	inactive
kuz	DRSC03555	1.25e6	1.29e6	1.19e6	1.31e6	inactive
Cln3	DRSC10520	1.39e6	1.38e6	1.23e6	1.33e6	inactive
CG10298	DRSC12522	1.55e6	1.69e6	1.27e6	1.33e6	inactive
CG8441	DRSC07180	1.42e6	1.54e6	1.25e6	1.14e6	inactive
CG5697	DRSC15858	1.43e6	1.58e6	1.06e6	1.20e6	inactive
